From publication PMC6177467
Results are given in words; binding and its absence hold for the method and conditions named. For some of these results: Binding seen in cells or lysates may run through a third protein. Some binding calls cover weakened binding; strength is not graded here.

Sequences of proteins named here, by UniProt entry; tags and fusion partners are left off.
UniProt P38398: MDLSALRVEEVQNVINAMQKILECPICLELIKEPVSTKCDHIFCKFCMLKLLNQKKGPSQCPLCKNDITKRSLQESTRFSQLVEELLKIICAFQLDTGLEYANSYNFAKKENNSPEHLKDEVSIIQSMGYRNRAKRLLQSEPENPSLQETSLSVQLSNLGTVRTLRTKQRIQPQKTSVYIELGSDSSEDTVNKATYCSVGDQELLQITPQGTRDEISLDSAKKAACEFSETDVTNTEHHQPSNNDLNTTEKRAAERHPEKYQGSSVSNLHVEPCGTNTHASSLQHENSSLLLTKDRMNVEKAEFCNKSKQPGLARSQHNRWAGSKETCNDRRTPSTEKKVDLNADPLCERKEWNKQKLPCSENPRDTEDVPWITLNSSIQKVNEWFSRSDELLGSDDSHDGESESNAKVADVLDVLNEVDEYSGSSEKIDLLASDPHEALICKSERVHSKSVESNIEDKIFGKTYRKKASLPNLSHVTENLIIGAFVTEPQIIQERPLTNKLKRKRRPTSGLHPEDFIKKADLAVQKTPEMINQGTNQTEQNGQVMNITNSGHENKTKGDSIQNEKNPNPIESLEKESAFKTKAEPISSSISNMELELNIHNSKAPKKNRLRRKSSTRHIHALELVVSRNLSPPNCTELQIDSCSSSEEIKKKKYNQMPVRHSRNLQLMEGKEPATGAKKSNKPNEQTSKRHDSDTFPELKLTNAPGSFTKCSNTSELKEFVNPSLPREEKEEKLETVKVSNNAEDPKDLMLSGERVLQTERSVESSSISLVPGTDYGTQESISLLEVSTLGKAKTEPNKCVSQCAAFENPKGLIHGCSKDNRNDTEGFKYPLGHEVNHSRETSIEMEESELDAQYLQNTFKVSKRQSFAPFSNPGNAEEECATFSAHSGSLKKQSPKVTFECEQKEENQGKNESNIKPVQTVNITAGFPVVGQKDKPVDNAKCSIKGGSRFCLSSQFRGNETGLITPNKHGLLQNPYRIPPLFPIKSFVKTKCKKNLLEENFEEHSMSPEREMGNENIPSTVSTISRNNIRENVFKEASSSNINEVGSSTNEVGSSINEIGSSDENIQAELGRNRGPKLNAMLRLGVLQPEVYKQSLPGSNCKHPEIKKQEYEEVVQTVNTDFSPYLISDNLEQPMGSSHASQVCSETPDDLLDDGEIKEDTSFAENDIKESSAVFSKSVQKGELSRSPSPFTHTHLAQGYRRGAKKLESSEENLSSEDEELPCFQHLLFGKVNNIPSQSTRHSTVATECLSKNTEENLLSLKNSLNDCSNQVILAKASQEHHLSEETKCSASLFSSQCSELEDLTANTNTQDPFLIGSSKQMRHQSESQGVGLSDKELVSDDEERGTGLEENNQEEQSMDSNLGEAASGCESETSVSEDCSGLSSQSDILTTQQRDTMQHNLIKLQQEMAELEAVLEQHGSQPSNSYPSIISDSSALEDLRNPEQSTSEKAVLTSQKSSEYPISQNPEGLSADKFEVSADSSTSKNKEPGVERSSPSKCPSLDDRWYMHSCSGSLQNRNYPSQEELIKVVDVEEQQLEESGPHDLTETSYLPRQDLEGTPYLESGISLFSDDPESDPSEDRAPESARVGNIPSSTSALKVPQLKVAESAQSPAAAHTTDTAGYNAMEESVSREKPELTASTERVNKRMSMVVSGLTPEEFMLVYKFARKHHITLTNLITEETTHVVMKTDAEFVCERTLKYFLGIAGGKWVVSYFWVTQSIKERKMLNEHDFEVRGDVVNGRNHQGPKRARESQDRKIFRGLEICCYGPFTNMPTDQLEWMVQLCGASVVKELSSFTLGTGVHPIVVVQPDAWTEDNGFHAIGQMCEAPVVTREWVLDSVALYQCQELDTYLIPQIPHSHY

What was measured:
[1] = molecular target: T1, P73 (human (endogenous in ARP)) (UniProt O15350); assay: co-IP; endogenous proteins; nuclear lysates of ARP cells, control (DMSO) or treated with 5 µM API3 for 24 h, immunoprecipitated with anti-P73 antibody or IgG (control); Western blot probed with anti-APEX1 antibody
T1 sequence: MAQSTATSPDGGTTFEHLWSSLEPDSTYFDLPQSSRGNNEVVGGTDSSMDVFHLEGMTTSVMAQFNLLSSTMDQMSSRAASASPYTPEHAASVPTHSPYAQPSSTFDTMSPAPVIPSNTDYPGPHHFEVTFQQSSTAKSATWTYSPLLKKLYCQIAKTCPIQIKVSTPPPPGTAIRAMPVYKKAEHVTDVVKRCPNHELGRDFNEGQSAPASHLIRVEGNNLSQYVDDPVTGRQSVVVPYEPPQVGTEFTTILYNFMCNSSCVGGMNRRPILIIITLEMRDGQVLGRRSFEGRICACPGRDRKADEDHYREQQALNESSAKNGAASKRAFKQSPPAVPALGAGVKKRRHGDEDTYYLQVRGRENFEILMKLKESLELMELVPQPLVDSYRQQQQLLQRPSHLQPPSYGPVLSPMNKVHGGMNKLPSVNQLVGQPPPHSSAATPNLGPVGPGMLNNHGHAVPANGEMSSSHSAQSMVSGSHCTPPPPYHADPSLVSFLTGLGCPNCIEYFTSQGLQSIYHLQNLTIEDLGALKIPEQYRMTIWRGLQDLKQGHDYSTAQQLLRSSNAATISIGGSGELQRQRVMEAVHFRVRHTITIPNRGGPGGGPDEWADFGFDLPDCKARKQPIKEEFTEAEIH

[2] = molecular target: BRCA1 (human (endogenous in MM cells)) (UniProt P38398); assay: peptide or protein array; antibody array: cell cycle antibody array (Hypromatrix, 60 antibodies) and/or custom array (40 antibodies) immobilised on nitrocellulose, incubated with MM cell lysate, then with HRP-conjugated anti-APEX1 or anti-APEX2 antibody; partners identified by their address on the array
[3] = molecular target: P53 (human (endogenous in MM cells)) (UniProt P04637); assay: as above
[4] = molecular target: T1, P73 (human (endogenous in ARP)); assay: as above

binding [1]: binds
binding [2]: binds
binding [3]: binds
binding [4]: binds
Substance: APEX1 (from UniProt P27695 1-318) (enzyme)
